Experimental data: publication PMC3158767
Results are given in words; binding and its absence hold for the method and conditions named. In cells and extracts the contact can be indirect. Some results given as binding are weak or reduced against the parent protein; the word gives no strength.

Target: GST-Dp71 fusion protein (human) (UniProt P11532)
Assay: pull-down; GST or GST-Dp71 immobilised on glutathione-Sepharose beads, incubated overnight at 4°C with PC12 nuclear extract (1 mg of cell extract in RIPA buffer with 1% Triton X-100); immunoblot with anti-lamin B1; only the target purified

binding: binds
B1: lamin B1 (endogenous, PC12 cells) (protein, UniProt P70615 1-587)
chain: MATATPVQQRAGSRASAPATPFSPTRLSRLQEKEELRELNDRLAVYIDKVRSLETENSALQLQVTEREEVRGRELTGLKALYETELADARRALDDTARERAKLQIELGKFKAEHDQLLLNYAKKESDLSGAQIKLREYEAALNSKDAALATALGDKKSLEGDLEDLKDQIAQLEASLSAAKKQLADETLLKVDLENRCQSLTEDLEFRKNMYEEEINETRRKHETRLVEVDSGRQIEYEYKLAQALHEMREQHDAQVRLYKEELEQTYHAKLENARLSSEMNTSTVNSARGGMMESRMRIESLSSQLSNLQKDSRACLERIQELEDMLAKERDNSRRMLSDKEREMAEIRDQMQQQLNDYEQLLDVKLALDMEISAYRKLLEGEEERLKLSPSPSSRVTVSRASSSRSVRTTRGKRKRVDVEESEASSSVSISHSASATGNVCIEEIDVDGKFIRLKNTSEQDQPMGGWEMIRKIGDTSVSYKYTSRYVLKAGQTVTVWAANAGVTASPPTDLIWKNQNSWGTGEDVKVVLKNSQGEEVAQRSTVFKTTIPEEEEEEEEEPIGVPLEEERFHQQGTPRASNKSCAIM
